# Several values for one entry are separate records, joined by “and”; a condition that tells them apart may be missing. Equal values may be shown once. The list shows a part of the results. For some assays here: The exact form of the protein is not confirmed.
# Tests used:
# Test in all cases: protein microarray (ProtoArray v5.0), streptavidin-Alexa Fluor 647
# Settings in all cases: 3'-biotin; 20 mM Tris (pH 7.5), 5 mM MgCl2, 100 mM KCl, 0.1% Tween-20, A/T-rich and random oligonucleotide blockers; temperature not stated; high values mean tight binding
# CCDC115 = target: T1, CCDC115 (UniProt Q96NT0)
# T1 sequence: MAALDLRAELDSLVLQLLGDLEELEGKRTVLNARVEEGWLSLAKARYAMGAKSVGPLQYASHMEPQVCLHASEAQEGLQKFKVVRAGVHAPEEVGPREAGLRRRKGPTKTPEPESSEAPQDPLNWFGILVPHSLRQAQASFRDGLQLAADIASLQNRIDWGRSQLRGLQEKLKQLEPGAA
# CCDC32 (human) = system: CCDC32 (human)
# CCDC40 (human) = system: CCDC40 (human)
# CCDC82 (human) = system: CCDC82 (human)
# CCDC83 (human) = system: CCDC83 (human)
# CCL3 (human) = system: CCL3 (human)
# CCL3L3 (human) = system: CCL3L3 (human)
# CCL4 (human) = system: CCL4 (human)
# CCNF = target: T2, CCNF (UniProt P41002)
# T2 sequence: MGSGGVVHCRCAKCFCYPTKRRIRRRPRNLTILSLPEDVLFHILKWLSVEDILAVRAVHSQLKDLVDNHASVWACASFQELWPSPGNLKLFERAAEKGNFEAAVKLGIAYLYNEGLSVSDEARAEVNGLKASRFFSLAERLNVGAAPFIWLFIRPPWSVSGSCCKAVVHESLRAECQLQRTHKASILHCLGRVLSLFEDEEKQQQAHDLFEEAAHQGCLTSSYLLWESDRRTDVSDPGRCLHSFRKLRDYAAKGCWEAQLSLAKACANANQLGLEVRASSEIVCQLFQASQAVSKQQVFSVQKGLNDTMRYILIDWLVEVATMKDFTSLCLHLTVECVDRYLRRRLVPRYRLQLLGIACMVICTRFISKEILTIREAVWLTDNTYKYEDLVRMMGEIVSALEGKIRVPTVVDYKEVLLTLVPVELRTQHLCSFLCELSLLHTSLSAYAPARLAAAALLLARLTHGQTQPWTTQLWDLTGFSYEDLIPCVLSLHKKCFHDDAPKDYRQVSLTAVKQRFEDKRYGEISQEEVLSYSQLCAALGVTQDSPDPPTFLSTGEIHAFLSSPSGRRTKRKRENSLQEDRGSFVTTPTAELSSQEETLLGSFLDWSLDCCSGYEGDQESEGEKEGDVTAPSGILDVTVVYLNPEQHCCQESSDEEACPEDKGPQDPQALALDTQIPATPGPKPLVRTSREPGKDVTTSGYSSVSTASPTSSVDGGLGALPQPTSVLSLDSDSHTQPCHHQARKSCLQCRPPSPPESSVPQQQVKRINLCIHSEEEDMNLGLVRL
# CCT2 (human) = system: CCT2 (human)
# CCT8 (human) = system: CCT8 (human)
# CD209 = target: T3, CD209 (UniProt Q9NNX6)
# T3 sequence: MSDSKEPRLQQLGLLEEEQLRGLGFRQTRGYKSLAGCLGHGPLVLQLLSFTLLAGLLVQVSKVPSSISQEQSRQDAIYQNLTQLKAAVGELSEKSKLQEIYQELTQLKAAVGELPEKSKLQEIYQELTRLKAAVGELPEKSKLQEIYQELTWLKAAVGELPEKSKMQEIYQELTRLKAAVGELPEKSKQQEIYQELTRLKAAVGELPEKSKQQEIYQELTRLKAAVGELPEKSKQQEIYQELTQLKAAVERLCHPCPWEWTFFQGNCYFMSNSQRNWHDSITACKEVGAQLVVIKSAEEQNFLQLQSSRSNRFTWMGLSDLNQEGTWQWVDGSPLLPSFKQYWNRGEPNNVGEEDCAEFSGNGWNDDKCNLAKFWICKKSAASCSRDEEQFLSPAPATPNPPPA
# CD244 (human) = system: CD244 (human)
# CD40 (human) = system: CD40 (human)
# CD9 (human) = system: CD9 (human)
# CDC123 (human) = system: CDC123 (human)
# CDCA4 (human) = system: CDCA4 (human)
# [1] = system: CDK5 regulatory subunit-associated protein 3 (human)
# CDK6 (human) = system: CDK6 (human)
# CDKN2D (human) = system: CDKN2D (human)
sequence,measurement,setting,value
GGGGACAGGGGTATGGGGAGGGG [G4-3 biotinylated (CtG)],binding signal,CCDC115,-0.322 z-score
same,binding signal,CCDC32 (human),-0.349 z-score
same,binding signal,CCDC40 (human),-0.329 z-score
same,binding signal,CCDC82 (human),-0.33 z-score
same,binding signal,CCDC83 (human),-0.315 z-score
same,binding signal,CCL3 (human),-0.335 z-score
same,binding signal,CCL3L3 (human),-0.319 z-score
same,binding signal,CCL4 (human),-0.308 z-score
same,binding signal,CCNF,-0.323 z-score
same,binding signal,CCT2 (human),-0.326 z-score
same,binding signal,CCT8 (human),-0.33 z-score and -0.336 z-score
same,binding signal,CD209,-0.322 z-score
same,binding signal,CD244 (human),-0.318 z-score
same,binding signal,CD40 (human),-0.319 z-score
same,binding signal,CD9 (human),-0.331 z-score
same,binding signal,CDC123 (human),-0.327 z-score
same,binding signal,CDCA4 (human),-0.332 z-score
same,binding signal,[1],-0.349 z-score
same,binding signal,CDK6 (human),-0.321 z-score
same,binding signal,CDKN2D (human),-0.337 z-score

# Quoted at random: two records from the list
sequence,measurement,setting,value
GGGGACAGGGGTATGGGGAGGGG [G4-3 biotinylated (CtG)],binding signal,CD209,-0.322 z-score
same,binding signal,CCDC82 (human),-0.33 z-score

# — paper PMC5996148
